Laboratory results: US20190012428A1
These are yes or no findings as the source states them, for the method shown. Some entries that bind do so weakly or less than the wild type.

How the values were obtained:
DHR49 [1] = assay: crystal structure and SAXS fitting, homodimer
DHR49 [2] = assay: SAXS, fitted with the dimer seen in the crystal structure
DHR49 [3] = assay: analytical gel filtration with multi-angle light scattering, homodimer
DHR49 [4] = assay: SEC-MALS, self-association (homodimer)
DHR76 [5] = assay: crystal structure and SAXS fitting, homodimer
DHR76 [6] = assay: SAXS, fitted with the dimer seen in the crystal structure
DHR76 [7] = assay: analytical gel filtration with multi-angle light scattering, homodimer
DHR76 [8] = assay: SEC-MALS, self-association (homodimer)

Measured: binding

B1: DHR49 (protein)
chain: MDSEEEQERIRRILKEARKSGTEESLRQAIEDVAQLAKKSQDSEVLEEAIRVILRIAKESGSEEALRQAIRAVAEIAKEAQDSEVLEEAIRVILRIAKESGSEEALRQAIRAVAEIAKEAQDPRVLEEAIRVIRQIAEESGSEEARRQAERAEEEIRRRAQGWLEHHHHHH
binds: DHR49 [1] | DHR49 [2] | DHR49 [3] | DHR49 [4]

B2: DHR76 (protein)
chain: MNPELEEWIRRAKEVAKEVEKVAQRAEEEGNPDLRDSAKELRRAVEEAIEEAKKQGNPELVEWVARAAKVAAEVIKVAIQAEKEGNRDLFRAALELVRAVIEAIEEAVKQGNPELVEWVARAAKVAAEVIKVAIQAEKEGNRDLFRAALELVRAVIEAIEEAVKQGNPELVERVARLAKKAAELIKRAIRAEKEGNRDERREALERVREVIERIEELVRQGGWLEHHHHHH
binds: DHR76 [5] | DHR76 [6] | DHR76 [7] | DHR76 [8]
